Measured values reported in PMC7778541.
These are yes or no findings as the source states them, for the method shown. In cells and extracts the contact can be indirect. Some binding calls cover weakened binding; strength is not graded here.

The chains behind the UniProt entries cited, without tags or fusion partners.
UniProt P13010: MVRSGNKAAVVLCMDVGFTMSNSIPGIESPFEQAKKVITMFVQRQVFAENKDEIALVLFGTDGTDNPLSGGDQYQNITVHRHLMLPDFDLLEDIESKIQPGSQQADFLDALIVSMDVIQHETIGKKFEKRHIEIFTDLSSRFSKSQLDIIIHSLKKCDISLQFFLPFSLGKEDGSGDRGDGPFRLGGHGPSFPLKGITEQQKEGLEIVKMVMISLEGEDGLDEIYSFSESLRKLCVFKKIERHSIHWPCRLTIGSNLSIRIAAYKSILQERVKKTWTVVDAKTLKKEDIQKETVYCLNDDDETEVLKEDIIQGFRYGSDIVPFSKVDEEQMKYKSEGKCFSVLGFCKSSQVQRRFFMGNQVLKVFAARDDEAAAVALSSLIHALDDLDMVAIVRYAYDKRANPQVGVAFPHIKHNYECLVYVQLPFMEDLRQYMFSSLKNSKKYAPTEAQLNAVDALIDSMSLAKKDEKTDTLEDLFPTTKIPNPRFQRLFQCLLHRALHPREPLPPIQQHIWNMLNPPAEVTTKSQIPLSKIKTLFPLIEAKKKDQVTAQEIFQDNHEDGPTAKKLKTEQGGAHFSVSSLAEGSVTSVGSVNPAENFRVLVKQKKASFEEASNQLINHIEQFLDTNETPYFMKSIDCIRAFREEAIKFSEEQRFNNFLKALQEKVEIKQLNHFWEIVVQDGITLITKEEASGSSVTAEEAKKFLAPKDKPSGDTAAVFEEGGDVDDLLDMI

T1: Deltex3 (human (endogenous in PTC cells)) (UniProt Q8N9I9)
T1 sequence: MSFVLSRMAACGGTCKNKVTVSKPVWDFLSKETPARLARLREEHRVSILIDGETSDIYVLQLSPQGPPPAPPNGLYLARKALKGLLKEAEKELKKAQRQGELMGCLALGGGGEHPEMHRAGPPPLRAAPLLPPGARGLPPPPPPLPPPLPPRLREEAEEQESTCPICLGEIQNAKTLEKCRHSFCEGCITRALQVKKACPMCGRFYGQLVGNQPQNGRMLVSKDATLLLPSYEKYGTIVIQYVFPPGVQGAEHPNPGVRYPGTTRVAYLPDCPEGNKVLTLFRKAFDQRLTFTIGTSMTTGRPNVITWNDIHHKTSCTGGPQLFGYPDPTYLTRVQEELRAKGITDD

B1: NADH: Ubiquinone Oxidoreductase Complex Assembly Factor 5 (protein, UniProt Q5TEU4 37-345)
chain: GSTSPRTLNIFDRDLKRKQKNWAARQPEPTKFDYLKEEVGSRIADRVYDIPRNFPLALDLGCGRGYIAQYLNKETIGKFFQADIAENALKNSSETEIPTVSVLADEEFLPFKENTFDLVVSSLSLHWVNDLPRALEQIHYILKPDGVFIGAMFGGDTLYELRCSLQLAETEREGGFSPHISPFTAVNDLGHLLGRAGFNTLTVDTDEIQVNYPGMFELMEDLQGMGESNCAWNRKALLHRDTMLAAAAVYREMYRNEDGSVPATYQIYYMIGWKYHESQARPAERGSATVSFGELGKINNLMPPGKKSQ

Target: T1, Deltex3 (human (endogenous in PTC cells))
Test: co-IP; whole cell lysates; immunoprecipitation with DTX3, NDUFAF5 or XRCC5 antibody or normal IgG, 4 °C, Protein A/G PLUS-Agarose beads; western blot of the partner; both orientations

Molecule | binding
X-ray repair cross-complementing protein 5 (from UniProt P13010 1-732) | binds
B1 | binds
